Out of some 53,000 sequences screened, about 3,700 (7%) were called active.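 The calls were made as follows: active = gene knockdowns whose robust z-score for IL-1 alpha signal is at least 2 or at most -2, so actives lie on both sides; inactive = the rest.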 The list shows a part of the results.

This test is described as follows: Components of the Cytosolic LPS Sensing Pathway: Gene Identification via Genome-wide siRNA Screen.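 Also: robust z of the log signal after scaling to non-targeting control siRNA wells of the plate.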 The note with it: RAW264.7 macrophages, IL-1a HTRF, actives lie on both sides, screened at 100 nM (by protocol), cells primed 5 h with Pam3CSK4 first. Summed up: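 Knockdown: 100 nM siRNA, 48h, RAW264.7. Stimulation: Pam3CSK4 5 h, then LipidA via TransIT-TKO 24 h. Output: supernatant IL-1a HTRF, negative-control-normalized, log robust z-score; viability by CellTiter-Glo.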
For the sequence GGAGAUCAAGAAUCUCUCUTT against Rnf112, the z-score was inactive: 1.44.

With GGCGACCCUGACUUCUAUATT against Spon1, the z-score was inactive: -0.553. Turning to GCAAUGAGUACUAUCAUACTT against Gnal, the z-score was active: -2.71. As for GGAUAUGACCCUAGAUUUATT against Gpm6b, the figure is inactive: 0.897; as for GGAAGAACUCAAGAGGGAATT against Plpp2, inactive: -0.775; as for GCUCUGCUAACUUACAUCUTT against Mtmr11, inactive: 1.75. Under GGGUUACGCCUUCAUUAAUTT against Sf3b4 stands inactive: -1.7. As for GGAGGUAAAGAUCAUGUCATT against Ddr1, the figure is inactive: -1.39; as for CCAGGUGGAGUCCAUCUUCTT against Acacb, inactive: 0.0569. On to GGAAAACACUUUAAACCAGTT against Afg3l1, for which the z-score is inactive: -0.671. As for GGAGGAACCCAAGUAGCCUTT against Serf2, the figure is inactive: -1.68; as for GGCUAUUGUAUGAAAUUGUTT against Zfp599, inactive: 0.303. As for GGAAGAACCCUGCUACAUCTT against Mrpl37, the figure is inactive: 0.764; as for GGUGCAGAAGCUCAAGUUCTT against Cpne2, active: 2.44. Consider GGACAUGUCGGAUGGCUUCTT against P4ha1, for which the z-score was inactive: 0.212. CGGAAUGAUUCUGACUAAUTT against Mmp7: the z-score was inactive: 0.546. Take GGCAGAAAAGAAGAAGAAUTT against Ktn1: the z-score was inactive: 0.402.

Turning to GCAUUUAAGUGUUGCAUUGTT against C1qtnf3, the z-score was inactive: 1.09. Under CCACUGUGAGACACAUAAGTT against Muc4 stands active: -3.25. As for CCUUGGACUGAUAUUAGCUTT against Dtx3, the figure is inactive: 0.0235; as for “GGAUAUAGAAGAUGAAGAATT against 2810408A11Rik”, inactive: 0.784; as for GGUAUGUCCGACAUUUAACTT against Irx5, inactive: 1.89. As for GCAGGUACUGCGCUAUUAUTT against Atp13a2, the figure is inactive: -0.766; as for GGAGAGGAGUGUGUCAUCUTT against Neurl3, inactive: 0.0796; as for GCCGCUACCUAUGAUGUCCTT against Kcne4, inactive: 0.385. Regarding GCAGGAGAACUUUUUUAGUTT against Hus1, the z-score was inactive: -1.01. Under GGCGGACAGUUCUUUGCAATT against Slc2a13 stands inactive: -0.144. As for CGGACAAAUGCUGUGCGUUTT against Kcnd1, the figure is inactive: 0.163; as for CGCACAUGAAGCCACAUAUTT against Plekhb1, inactive: -0.176. Under GGUUAUAGACAAGAUCGAUTT against Comp stands inactive: 0.536. Turning to CCCGCAACAAUAAACCUGATT against Yif1b, the z-score was inactive: -1.36.

Turning to GGCUGCUGGGAAAAUGUGGTT against Hmgb4, the z-score was inactive: -1.84. Under GGCAGUUACAAAGUCUGUUTT against Timm8b stands inactive: -0.334; under GGACGAUUACAUCCUUUUUTT against Gpn3, inactive: -0.93; under “GGAUCCAAGGGCAAAAGAUTT against St6galnac1”, inactive: -1.36. As for GGCUAUAGUUCUCUGUUUUTT against Mon2, the figure is inactive: -0.0947.

With “GGACCAGUUAGAGCAAAUGTT against 2300002M23Rik”, the z-score was inactive: -0.742. Under CCGUGGACCUAGGACUCAUTT against Olfr622 stands inactive: 0.618; under CCAUUUCCUACGCAAAAUGTT against Olfr1423, inactive: -0.838; under GGAUGGACCUUCAGAAAAGTT against Srrm4, inactive: -1.63. As for GGCAAAAGUGGUUAUUGAATT against Itga6, the figure is inactive: 0.039; as for GGUGUAUGGUCUCAACUUUTT against Enah, inactive: 1.84; as for GGCAGAAGCAGAUAUUAGATT against Rbmxl1, active: 2.23. Turning to CCUCCGGUCUUAUCAUGCATT against Sec61a1, the z-score is inactive: 0.0213.

For GGAUAAGAGCAUCUCUUCATT against Sdhd, the z-score was inactive: -0.993.

In the case of CCUCAAAUUAGUGCAGUUATT against Dnah8, the z-score is inactive: 0.661.

Regarding GCCAUGUGAUCGAAUCCAGTT against Clip2, the z-score was inactive: -0.0773.

UCAGCGAGCUUUAACCUUUTT against Olfr1028: the z-score is inactive: 0.26.

For CGGUACUUCAUUGUAAUUUTT against Slc20a2, the z-score is inactive: 1.2. As to GGACCAAUAAACCUAGAACTT against Dact1, the z-score is inactive: -1.23.

On to CCGCACCAGGGAAAAUGCUTT against Crym, for which the z-score was inactive: -1.45.

Consider GGACUGUGGAUGAGUCCGUTT against Dnmbp, for which the z-score was inactive: 0.689.

Consider GGUAGGAGGUAUUUCCCACTT against Shisa5, for which the z-score was inactive: 0.197. Under GGAGGUGGAUGAAGUAUUUTT against Nudt8 stands inactive: -0.162. Regarding CCGUAUAGGUAGAUCCAGATT against Stmn1, the z-score was inactive: -0.717.

As to GCACCGUGUGACCAUGAACTT against Akt1, the z-score was active: 3.96. As to GGAUUCAGACCACAAUACCTT against Klk4, the z-score was inactive: 0.746. Under “CCUGGACUGAGAAUAUAGCTT against 2610008E11Rik” stands inactive: -0.0107.

On to GCUUUGUGAUGGAUUACUATT against Ccl4, for which the z-score is inactive: 1.85. Take GCAAAACGGCUUUUGAAUGTT against Zfp454: the z-score was inactive: -0.384. Take GGUACUAAGCACAAGACAATT against Zfp385a: the z-score is inactive: 0.982. Under GGUUGUAAUGAGAAAGUGATT against H2-Ke6 stands inactive: 0.152; under GGCUUGUGGAAAUUUUGGGTT against Paics, inactive: 0.908; under CGAUUUAAACAUGGAAUUCTT against Ccny, inactive: 0.665. As for GGUUGCACUUUUUCAUAGUTT against Bcl2l2, the figure is inactive: 0.97; as for CGUGUUUGAUCACUACUCUTT against Tnfaip8l2, inactive: -0.593. GCAAGAGUCUUGGCCCUCATT against Morn4: the z-score is inactive: 0.534. As for CCCUCAACCAUUGUUCGAGTT against Rasal1, the figure is inactive: -0.328; as for CCUCAUUGUAGUCACCCUCTT against Olfr91, inactive: -1.44; as for GGUUAUUUUACAUGAGUACTT against Il15, inactive: -0.416.

With GGCAUUCAAACCUCUCGUGTT against Dcn, the z-score was inactive: -0.921. As for GGAACCCAACAUUGCCAAGTT against Ier3, the figure is inactive: -1.31.

As for GGUCAGAACCCUAAAGACCTT against Tbcd, the z-score was inactive: -0.425.

For the sequence GGCACAAUUAACAAGAAAATT against Pfn2, the z-score was inactive: -0.746. As for GCAUACGUGUUCAAUGGUGTT against Ppef2, the figure is inactive: -0.541. Consider GGCUCUGAGCUACAUCUUUTT against Trex2, for which the z-score is inactive: -0.458. As for GGCCGGAGCUUACGAUUUUTT against Camk2d, the figure is inactive: 0.309; as for GGAGACAGUGGUAUUUUGATT against Birc5, inactive: 0.468; as for GCAUCCAUGCUAUGGAACCTT against Rhox8, inactive: 0.36.

With GGAAAUUUGGGUAGGAGUGTT against Atp5mpl, the z-score is inactive: -1.91.

On to GCUGUCCAGACAAACACUATT against Cd27, for which the z-score is inactive: -0.602. Regarding GGAAAUCGAUUCUCAUGAUTT against St6gal2, the z-score is inactive: 0.00146. Under CCUAGAGAACUUUCUUCUUTT against Olfr385 stands inactive: -0.0168. As for GCAAAAGUGUAUCAUGAUGTT against Olfr1052, the figure is active: -2.17; as for GGAGUUGAUUGAAAUCAUCTT against Atp5c1, inactive: 0.466. In the case of GGCCACAACAGAGAUUAAATT against Bank1, the z-score is inactive: -0.304.

In the case of GGGAUAUGAAAUCAUUUUCTT against Cyld, the z-score is inactive: 0.819. As for CCAUGUUAUAUGAUAAGGGTT against Riox1, the figure is inactive: -1.17. For CGGAGAGCCUUCCAUAUGATT against Ndufb8, the z-score is inactive: -1.27.

With GGCAGAAUUACAUUUAACATT against Grik2, the z-score was inactive: 0.702. GCCUCAAACCAUCAUACUUTT against Ppp1r13b: the z-score is inactive: -0.00468. As for “GCAGGGACUAUCAGAGUUCTT against D430018E03Rik”, the figure is inactive: 0.589; as for GGUGGAGUUUAAACUUACATT against Atp4b, active: 5.64; as for CCUACUUUAGUUCACUUUGTT against Tsnax, inactive: 0.836.

As to GCACUUACAUUGACGAACUTT against Olfr985, the z-score was inactive: 1.78.

For the sequence GGCUGUACUAACUGUCGUUTT against Pdxdc1, the z-score is inactive: -0.695. Under GGUAUGCAUUCCAGAAAUATT against Stox2 stands inactive: -0.391; under GGGACAUCCGGAAUAUUUGTT against Exog, inactive: -1.01; under GGAAGUUACUGUGAGAUAATT against Mtbp, inactive: 0.265. For GGUCCAAAGAUAGAAGCCATT against Pramel13, the z-score was inactive: 0.455. Under CGUGCUGUUUAAAAGCCGUTT against Mkrn3 stands inactive: 0.557. With CGAUACGGAUGUUUUCUCUTT against Tspan18, the z-score is inactive: -0.234. As to GGGCAGGUUGUCUUUCUACTT against Plpp1, the z-score was inactive: 0.997. As for GGAAAAGACAAGAAAAGAUTT against Zc3h15, the figure is inactive: -0.22; as for GGGAGUAGAGAUCAAAGGCTT against Cfb, inactive: -0.0723; as for “GGUAGUAGGAGUUUCCUACTT against 4933414I15Rik”, inactive: 1.44. GCAAGAAAACCUUAGCUCATT against Trpm2: the z-score is inactive: -0.518.

Source of the values: PubChem BioAssay AID1508600 (Functional Genomics Laboratory (NCATS/FGL), 2020).
